# From PubChem BioAssay AID328 (DTP/NCI, 2004)
# The list does not hold the whole screen: it gathers tests that were run many times, whatever their T/C, doses with no T/C, and many T/C values between a quarter and a half above the control. Other doses and runs of a compound stand elsewhere. T/C: endpoint of the treated group in % of that of the vehicle group. Some doses have a count of surviving animals in place of a T/C: the source holds a T/C of zero for them, seemingly a mark for toxic or unscored doses. Some survivor counts are full or nearly so, which does not show that the dose was tolerated: survival well below the control is almost never listed, so the zero probably covers shortened survival too. Survivors were counted at the toxicity check, usually on the fifth day, unless a day is given; later deaths do not show. Schedule codes are those of the source, read here as Q, the interval in days (D) or hours (H), X, the number of doses. Some structures stand for samples that the source files as different forms (salt, stereo form or complex); doses refer to the form tested. Some doses were run more than once; the results are listed from low to high. Where survival is the endpoint, this PubChem deposit counts one and a half times the control or more as active, and values a quarter to a half above the control carry no call in these data; other NCI protocols may use other cut-offs. Some T/C values are followed by the survivors on the day toxicity was checked, most often the fifth; where none is given, no animal had died by that day.
# Tested on: BDF1 mice, P388 leukemia ip, median survival T/C
# Assay: NCI In Vivo Anticancer Drug Screen. Data for tumor model P388 Leukemia (intraperitoneal) in B6D2F1 (BDF1) mice
# Conditions: T/C endpoint: median survival time, higher T/C = longer survival
# In short: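 Transplantable tumour in mice; compound vs vehicle dosing; survival scored; ratio of treated to control reported.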
# [1] = dose: 60.0 mg/kg/injection, schedule: Q01DX009 (ip), vehicle: saline with Tween-80
# [2] = dose: 50.0 mg/kg/injection, schedule: Q04DX003 (ip), vehicle: saline
# [3] = dose: 100.0 mg/kg/injection, schedule: Q04DX003 (ip), vehicle: saline
# [4] = dose: 200.0 mg/kg/injection, schedule: Q01DX009 (ip), vehicle: saline
# [5] = dose: 200.0 mg/kg/injection, schedule: Q04DX003 (ip), vehicle: saline
# [6] = dose: 400.0 mg/kg/injection, schedule: Q04DX003 (ip), vehicle: Klucel (hydroxypropylcellulose) (HPC)
# [7] = dose: 15.0 mg/kg/injection, schedule: Q01DX009 (ip), vehicle: saline with Tween-80
# [8] = dose: 20.0 mg/kg/injection, schedule: Q04DX003 (ip), vehicle: saline with Tween-80
# [9] = dose: 12.5 mg/kg/injection, schedule: Q01DX009 (ip), vehicle: saline
# [10] = dose: 50.0 mg/kg/injection, schedule: Q01DX009 (ip), vehicle: saline
# [11] = dose: 100.0 mg/kg/injection, schedule: Q01DX009 (ip), vehicle: saline
# [12] = dose: 50.0 mg/kg/injection, schedule: Q01DX009 (ip), vehicle: saline with Tween-80
# [13] = dose: 100.0 mg/kg/injection, schedule: Q01DX009 (ip), vehicle: saline with Tween-80
# [14] = dose: 200.0 mg/kg/injection, schedule: Q01DX009 (ip), vehicle: saline with Tween-80
# [15] = dose: 400.0 mg/kg/injection, schedule: Q01DX009 (ip), vehicle: saline with Tween-80
compound,measurement,setting,value
O/N=c1/ccn(O)c2ccccc12,T/C,"dose: 0.09 mg/kg/injection, schedule: Q01DX009 (ip), vehicle: saline",131 % of control
same,survivor count,"dose: 2.32 mg/kg/injection, schedule: Q04DX003 (ip), vehicle: saline",6 of 6
same,survivor count,"dose: 4.6 mg/kg/injection, schedule: Q01DX009 (ip), vehicle: saline",6 of 6
same,survivor count,"dose: 7.0 mg/kg/injection, schedule: Q01DX009 (ip), vehicle: saline",3 of 6
same,survivor count,"dose: 9.3 mg/kg/injection, schedule: Q04DX003 (ip), vehicle: saline",6 of 6
same,survivor count,"dose: 10.5 mg/kg/injection, schedule: Q01DX009 (ip), vehicle: saline",3 of 6
COc1cc2c3cc1Oc1c(OC)c(OC)cc4c1C(Cc1cc5c(c(c1)Oc1ccc(cc1)CC3N(C)CC2)OCO5)N(C)CC4 (stereo unspecified),survivor count,"dose: 10.0 mg/kg/injection, schedule: Q01DX010 (ip), vehicle: saline",6 of 6
O=[N+]([O-])c1ccc(S(=O)(=O)c2ccc([N+](=O)[O-])c3no[n+]([O-])c23)cc1,survivor count,[1],4 of 7
C1CC[N-]CC1.O=C(CC(=O)C(F)(F)F)C(F)(F)F.O=C(CC(=O)C(F)(F)F)C(F)(F)F.[Cu+],survivor count,"dose: 100.0 mg/kg/injection, schedule: Q01DX001 (ip), vehicle: saline with Tween-80",0 of 6
same,survivor count,"dose: 200.0 mg/kg/injection, schedule: Q01DX001 (ip), vehicle: saline with Tween-80",0 of 6
same,survivor count,"dose: 400.0 mg/kg/injection, schedule: Q01DX001 (ip), vehicle: saline with Tween-80",0 of 6
NC(CSCc1ccccc1)CSCc1ccccc1,T/C,"dose: 6.25 mg/kg/injection, schedule: Q04DX003 (ip), vehicle: saline",149 % of control
same,survivor count,[2],3 of 6
same,survivor count,[3],4 of 6
same,survivor count,[4],3 of 6
same,survivor count,[5],3 of 6
same,survivor count,"dose: 400.0 mg/kg/injection, schedule: Q04DX003 (ip), vehicle: saline",2 of 6
CCN(CCNc1ccc(CO)c2sc3ccccc3c(=O)c12)CC(C)(C)O,T/C,[6],127 % of control
CC(C)Cn1c(Cl)c(/C=N\Nc2ccccc2[N+](=O)[O-])c2ccccc21,survivor count,"dose: 400.0 mg/kg/injection, schedule: Q04DX002 (ip), vehicle: Klucel (hydroxypropylcellulose) (HPC)",5 of 6
CCCCN=C(N)c1ccc(NC(=O)c2ccc(C(=O)Nc3ccc(C(N)=NCCCC)cc3)cc2)cc1,T/C,[7],135 % of control
same,T/C,[8],145 % of control
same,T/C,"dose: 26.0 mg/kg/injection, schedule: Q04DX003 (ip), vehicle: saline with Tween-80",141 % of control
same,survivor count,[1],6 of 6
same,T/C,"dose: 90.0 mg/kg/injection, schedule: Q04DX003 (ip), vehicle: saline with Tween-80",131 % of control
COc1cc(N2CCOCC2)ccc1N,T/C,"dose: 3.13 mg/kg/injection, schedule: Q01DX009 (ip), vehicle: saline",132 % of control
same,survivor count,[9],0 of 3
same,survivor count,"dose: 25.0 mg/kg/injection, schedule: Q01DX009 (ip), vehicle: saline",0 of 3
same,T/C,"dose: 44.0 mg/kg/injection, schedule: Q04DX003 (ip), vehicle: saline",130 % of control
same,survivor count,[10],0 of 3
same,T/C,[2],136 % of control
same,T/C,"dose: 67.0 mg/kg/injection, schedule: Q04DX003 (ip), vehicle: saline",143 % of control
same,survivor count,[11],0 of 3
same,T/C,[3],129 and 140 % of control [5 of 6 alive]
same,survivor count,[3],1 of 6
same,survivor count,"dose: 150.0 mg/kg/injection, schedule: Q04DX003 (ip), vehicle: saline",1 of 6 and 3 of 6
Nc1ncc(C(=O)O)c(N)n1,survivor count,"dose: 3.12 mg/kg/injection, schedule: Q01DX009 (ip), vehicle: saline with Tween-80",6 of 6
same,survivor count,"dose: 12.5 mg/kg/injection, schedule: Q01DX009 (ip), vehicle: saline with Tween-80",6 of 6
same,survivor count,[12],6 of 6
[Cl][Pt+2][Cl].[NH-]C1CCC1.[NH-]C1CCC1,survivor count,"dose: 100.0 mg/kg/injection, schedule: Q01DX009 (ip), vehicle: Klucel (hydroxypropylcellulose) (HPC)",6 of 6
c1ccc2sc(SSN3CC4CCC(CC4)C3)nc2c1,T/C,[13],125 and 132 % of control
same,T/C,[14],136 and 145 % of control
same,T/C,[15],141 % of control
CN(C)c1ccc(/C=C\c2ccnc3ccccc23)cc1Br,survivor count,[12],5 of 6
same,survivor count,[14],5 of 6
Cc1ccc(S(=O)(=O)OC2CCC(C(C)(C)C)CC2Cl)cc1 (stereo unspecified),survivor count,[6],5 of 6
ClCC[N+]12CC[N+](CCCl)(CC1)C2,T/C,[12],140 % of control
same,T/C,[13],147 % of control
same,T/C,[11],126 % of control
same,T/C,"dose: 100.0 mg/kg/injection, schedule: Q04DX003 (ip), vehicle: saline with Tween-80",133 % of control
same,survivor count,[14],5 of 6
same,T/C,[4],144 % of control
same,survivor count,"dose: 200.0 mg/kg/injection, schedule: Q04DX003 (ip), vehicle: saline with Tween-80",2 of 6
same,survivor count,[15],2 of 6
same,T/C,"dose: 400.0 mg/kg/injection, schedule: Q04DX003 (ip), vehicle: saline with Tween-80",141 % of control
O=C1C2ON=C(c3ccccc3)C2C(=O)N1OS(=O)(=O)c1ccccc1 (stereo unspecified),survivor count,[15],5 of 6
C/C=C/C1=C(Cl)C(=O)[C@@H](Cl)[C@@]1(O)C(=O)OC,T/C,"dose: 2.5 mg/kg/injection, schedule: Q01DX009 (ip), vehicle: saline with Tween-80",125 and 142 % of control
same,T/C,"dose: 5.0 mg/kg/injection, schedule: Q01DX009 (ip), vehicle: saline with Tween-80",147 % of control
same,survivor count,[7],3 of 10
same,survivor count,"dose: 20.0 mg/kg/injection, schedule: Q01DX009 (ip), vehicle: saline with Tween-80",7 of 10
same,survivor count,[8],1 of 10
same,survivor count,"dose: 22.5 mg/kg/injection, schedule: Q01DX009 (ip), vehicle: saline with Tween-80",4 of 10
same,survivor count,"dose: 26.0 mg/kg/injection, schedule: Q01DX001 (ip), vehicle: saline with Tween-80",2 of 10
same,survivor count,"dose: 30.0 mg/kg/injection, schedule: Q01DX009 (ip), vehicle: saline with Tween-80",2 of 10
same,survivor count,"dose: 40.0 mg/kg/injection, schedule: Q01DX001 (ip), vehicle: saline with Tween-80",1 of 10
same,survivor count,"dose: 45.0 mg/kg/injection, schedule: Q01DX009 (ip), vehicle: saline with Tween-80",6 of 10
same,survivor count,"dose: 60.0 mg/kg/injection, schedule: Q01DX001 (ip), vehicle: saline with Tween-80",3 of 10
same,survivor count,"dose: 90.0 mg/kg/injection, schedule: Q01DX001 (ip), vehicle: saline with Tween-80",2 of 10
COc1ccc(/C=C/C(=O)c2ccc3c(c2)OCO3)cc1O,T/C,[9],136 % of control
CCC1=C(c2cc(Cl)c3ccccc3c2OCC(=O)O)OC(CC)(C(=O)c2cc(Cl)c3ccccc3c2OCC(=O)O)CC1 (stereo unspecified),survivor count,"dose: 100.0 mg/kg/injection, schedule: Q04DX003 (ip), vehicle: saline sonified",6 of 6
CS(=O)(=O)OCCCCCOS(C)(=O)=O,survivor count,[10],2 of 6
same,survivor count,[3],0 of 6
same,survivor count,[5],0 of 6
CC(=O)OCC(=O)[C@@]1(O)CC[C@H]2[C@@H]3CCC4=CC(=O)CC[C@]4(C)[C@H]3[C@@H](O)C[C@@]21C,survivor count,"dose: 200.0 mg/kg/injection, schedule: Q01DX010 (sc), vehicle: saline",6 of 6
same,survivor count,"dose: 400.0 mg/kg/injection, schedule: Q01DX010 (sc), vehicle: saline",6 of 6
same,survivor count,"dose: 600.0 mg/kg/injection, schedule: Q01DX010 (sc), vehicle: saline",6 of 6
same,survivor count,"dose: 800.0 mg/kg/injection, schedule: Q01DX010 (sc), vehicle: saline",6 of 6
